Data taken from the supplement of paper PMC6411743.
± gives the standard deviation of the averaged measurements. The list shows a part of the results.

By UniProt entry, the sequences of proteins in these tests, tags left out. Where a name states a change or a piece, a line headed by the entry shows the natural chain unless it says otherwise.
UniProt Q9HCN4, whole entry: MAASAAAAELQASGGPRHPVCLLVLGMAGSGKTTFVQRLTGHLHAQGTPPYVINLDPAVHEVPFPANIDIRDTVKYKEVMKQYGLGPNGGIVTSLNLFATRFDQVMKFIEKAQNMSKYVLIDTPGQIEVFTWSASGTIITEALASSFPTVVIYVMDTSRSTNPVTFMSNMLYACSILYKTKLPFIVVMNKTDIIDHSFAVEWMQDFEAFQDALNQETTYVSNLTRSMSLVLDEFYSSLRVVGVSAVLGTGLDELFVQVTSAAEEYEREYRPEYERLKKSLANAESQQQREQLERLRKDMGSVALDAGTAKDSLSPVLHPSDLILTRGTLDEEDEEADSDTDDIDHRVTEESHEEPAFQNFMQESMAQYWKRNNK
UniProt Q9HCJ0: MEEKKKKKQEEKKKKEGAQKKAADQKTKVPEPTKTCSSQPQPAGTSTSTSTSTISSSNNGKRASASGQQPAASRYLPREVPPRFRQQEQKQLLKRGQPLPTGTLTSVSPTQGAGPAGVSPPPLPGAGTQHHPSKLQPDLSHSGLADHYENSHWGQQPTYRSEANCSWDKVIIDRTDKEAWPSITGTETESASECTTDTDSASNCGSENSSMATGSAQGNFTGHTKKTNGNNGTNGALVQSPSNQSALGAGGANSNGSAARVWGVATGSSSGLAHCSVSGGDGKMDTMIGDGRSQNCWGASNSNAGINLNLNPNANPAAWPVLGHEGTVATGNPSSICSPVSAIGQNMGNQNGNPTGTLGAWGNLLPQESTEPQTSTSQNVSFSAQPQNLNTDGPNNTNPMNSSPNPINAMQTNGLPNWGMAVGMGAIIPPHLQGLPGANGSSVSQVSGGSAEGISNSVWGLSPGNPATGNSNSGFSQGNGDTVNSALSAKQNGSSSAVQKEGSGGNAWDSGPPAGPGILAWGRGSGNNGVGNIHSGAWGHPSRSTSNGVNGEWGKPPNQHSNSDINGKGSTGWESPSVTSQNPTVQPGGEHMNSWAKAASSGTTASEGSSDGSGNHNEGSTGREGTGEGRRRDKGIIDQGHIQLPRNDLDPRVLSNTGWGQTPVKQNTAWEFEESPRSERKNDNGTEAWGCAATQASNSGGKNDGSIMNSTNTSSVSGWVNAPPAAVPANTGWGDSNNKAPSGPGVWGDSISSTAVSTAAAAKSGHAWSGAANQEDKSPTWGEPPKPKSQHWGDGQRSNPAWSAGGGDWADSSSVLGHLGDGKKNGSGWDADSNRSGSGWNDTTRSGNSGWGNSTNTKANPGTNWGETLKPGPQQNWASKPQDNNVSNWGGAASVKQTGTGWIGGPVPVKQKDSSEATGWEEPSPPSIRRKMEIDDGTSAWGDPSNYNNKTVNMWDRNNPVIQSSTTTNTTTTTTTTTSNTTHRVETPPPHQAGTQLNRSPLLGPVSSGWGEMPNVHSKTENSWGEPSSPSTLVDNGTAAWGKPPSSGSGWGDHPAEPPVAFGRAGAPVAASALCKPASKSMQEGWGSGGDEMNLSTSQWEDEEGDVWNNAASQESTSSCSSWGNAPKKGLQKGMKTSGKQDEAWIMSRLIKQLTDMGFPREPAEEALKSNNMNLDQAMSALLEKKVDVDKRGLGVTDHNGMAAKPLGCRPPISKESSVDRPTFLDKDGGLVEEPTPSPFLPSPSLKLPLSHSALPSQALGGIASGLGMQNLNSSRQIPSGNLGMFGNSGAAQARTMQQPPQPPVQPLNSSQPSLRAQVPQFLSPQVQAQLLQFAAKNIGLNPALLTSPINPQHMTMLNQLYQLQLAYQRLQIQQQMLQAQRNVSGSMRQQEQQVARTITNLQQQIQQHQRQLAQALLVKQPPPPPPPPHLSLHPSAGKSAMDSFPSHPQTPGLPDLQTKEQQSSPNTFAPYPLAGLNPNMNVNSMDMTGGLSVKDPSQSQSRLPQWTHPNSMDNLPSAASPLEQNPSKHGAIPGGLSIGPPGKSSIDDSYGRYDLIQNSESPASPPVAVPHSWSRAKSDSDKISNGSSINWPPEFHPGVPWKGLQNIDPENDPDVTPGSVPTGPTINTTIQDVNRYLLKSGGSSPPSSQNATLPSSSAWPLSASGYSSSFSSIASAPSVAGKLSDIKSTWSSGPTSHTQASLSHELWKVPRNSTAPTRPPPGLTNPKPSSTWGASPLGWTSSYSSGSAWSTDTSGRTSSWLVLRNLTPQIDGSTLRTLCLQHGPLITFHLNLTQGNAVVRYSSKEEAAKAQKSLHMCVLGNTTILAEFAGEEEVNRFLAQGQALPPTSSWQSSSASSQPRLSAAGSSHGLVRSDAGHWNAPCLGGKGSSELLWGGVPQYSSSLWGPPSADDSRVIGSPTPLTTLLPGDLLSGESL
UniProt Q9NPD3, whole entry: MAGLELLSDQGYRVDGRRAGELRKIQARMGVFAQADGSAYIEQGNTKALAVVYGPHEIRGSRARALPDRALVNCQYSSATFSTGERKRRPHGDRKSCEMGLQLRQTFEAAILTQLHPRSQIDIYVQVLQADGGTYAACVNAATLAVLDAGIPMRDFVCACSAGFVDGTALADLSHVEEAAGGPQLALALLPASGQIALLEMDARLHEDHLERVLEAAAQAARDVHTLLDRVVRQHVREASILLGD
UniProt Q9NUE0: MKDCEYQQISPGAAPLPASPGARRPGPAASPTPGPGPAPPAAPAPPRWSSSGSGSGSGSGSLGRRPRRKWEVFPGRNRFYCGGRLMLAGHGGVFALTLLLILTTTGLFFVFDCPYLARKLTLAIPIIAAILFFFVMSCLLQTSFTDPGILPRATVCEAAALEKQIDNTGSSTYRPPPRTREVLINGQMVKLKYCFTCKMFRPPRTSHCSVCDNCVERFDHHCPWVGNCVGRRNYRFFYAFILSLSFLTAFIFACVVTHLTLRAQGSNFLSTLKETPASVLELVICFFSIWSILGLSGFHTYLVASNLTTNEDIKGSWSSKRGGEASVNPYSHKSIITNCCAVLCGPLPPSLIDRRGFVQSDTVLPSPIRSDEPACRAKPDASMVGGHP

Compound: Nc1nc2c(ncn2[C@@H]2O[C@H](COP(=O)(O)OP(=O)(O)OP(=O)(O)O)[C@@H](O)[C@H]2O)c(=O)[nH]1 [guanosine triphosphate]
Assay: NP40-soluble protein abundance relative to vehicle (solubility fold change) (ratio); higher = more soluble protein in presence of GTP
Experimental: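 Solubility proteome profiling in Jurkat crude lysate. Lysate was treated with Mg-GTP (0.1-10 mM) for 10 min at room temperature and 3 min at 37 °C, then solubilised with 0.8% NP40 and benzonase, followed by ultracentrifugation. Proteins were quantified by TMT10 LC-MS/MS; the value is the NP40-soluble abundance relative to the NP40-processed vehicle, from 3 independent experiments.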

In the case of UniProt Q9HCN4 and related entries, the NP40-soluble protein abundance (concentration: 0.1mM) is reported as 0.963 ± 0.054, the NP40-soluble protein abundance (concentration: 0.5mM) is reported as 1.01 ± 0.071 and the NP40-soluble protein abundance (concentration: 1mM) is reported as 0.983 ± 0.023. The NP40-soluble protein abundance (concentration: 2mM) was 0.983 ± 0.053, the NP40-soluble protein abundance (concentration: 4mM) was 0.97 ± 0.037 and the NP40-soluble protein abundance (concentration: 6mM) was 0.972 ± 0.044. For the same target, the NP40-soluble protein abundance (concentration: 8mM) was 0.942 ± 0.033 and the NP40-soluble protein abundance (concentration: 10mM) was 0.962 ± 0.029.
UniProt Q9HCJ0 and related entries showed an NP40-soluble protein abundance (concentration: 0.1mM) of 1.09 ± 0.051, an NP40-soluble protein abundance (concentration: 0.5mM) of 1.06 ± 0.044 and an NP40-soluble protein abundance (concentration: 1mM) of 1.01 ± 0.12. The NP40-soluble protein abundance (concentration: 2mM) was 1.05 ± 0.032, the NP40-soluble protein abundance (concentration: 4mM) was 0.972 ± 0.081 and the NP40-soluble protein abundance (concentration: 6mM) was 1.03 ± 0.077. It also gave an NP40-soluble protein abundance (concentration: 8mM) of 1.05 ± 0.023 and an NP40-soluble protein abundance (concentration: 10mM) of 1.07 ± 0.037.
Target UniProt Q9HD26 and related entries has an NP40-soluble protein abundance (concentration: 0.1mM) of 0.942 ± 0.059, an NP40-soluble protein abundance (concentration: 0.5mM) of 0.935 ± 0.063 and an NP40-soluble protein abundance (concentration: 1mM) of 0.926 ± 0.036. The NP40-soluble protein abundance (concentration: 2mM) was 0.923 ± 0.066, the NP40-soluble protein abundance (concentration: 4mM) was 0.922 ± 0.038 and the NP40-soluble protein abundance (concentration: 6mM) was 0.922 ± 0.076. It also gave an NP40-soluble protein abundance (concentration: 8mM) of 0.902 ± 0.072 and an NP40-soluble protein abundance (concentration: 10mM) of 0.881 ± 0.049.
In the case of EXOSC4 (UniProt Q9NPD3), the NP40-soluble protein abundance (concentration: 0.1mM) is reported as 1.07 ± 0.061, the NP40-soluble protein abundance (concentration: 0.5mM) is reported as 0.988 ± 0.057 and the NP40-soluble protein abundance (concentration: 1mM) is reported as 0.996 ± 0.015. It also gave an NP40-soluble protein abundance (concentration: 2mM) of 0.994 ± 0.11, an NP40-soluble protein abundance (concentration: 4mM) of 1.12 ± 0.023 and an NP40-soluble protein abundance (concentration: 6mM) of 1.12 ± 0.095. The NP40-soluble protein abundance (concentration: 8mM) was 1.11 ± 0.089 and the NP40-soluble protein abundance (concentration: 10mM) was 1.16 ± 0.054.
Work on ZDHHC18 (UniProt Q9NUE0) yielded an NP40-soluble protein abundance (concentration: 0.1mM) of 1.14 ± 0.17, an NP40-soluble protein abundance (concentration: 0.5mM) of 1.17 ± 0.091 and an NP40-soluble protein abundance (concentration: 1mM) of 1.24 ± 0.062. For the same target, the NP40-soluble protein abundance (concentration: 2mM) was 1.24 ± 0.14, the NP40-soluble protein abundance (concentration: 4mM) was 1.17 ± 0.1 and the NP40-soluble protein abundance (concentration: 6mM) was 1.2 ± 0.13. It also gave an NP40-soluble protein abundance (concentration: 8mM) of 1.02 ± 0.041 and an NP40-soluble protein abundance (concentration: 10mM) of 1.1 ± 0.16.
